The text below walks through data of article doi:10.1101/2025.04.19.649674.

Protein sequences, listed by entry. Tags and fused reporters are not part of them.
UniProt Q8NF50: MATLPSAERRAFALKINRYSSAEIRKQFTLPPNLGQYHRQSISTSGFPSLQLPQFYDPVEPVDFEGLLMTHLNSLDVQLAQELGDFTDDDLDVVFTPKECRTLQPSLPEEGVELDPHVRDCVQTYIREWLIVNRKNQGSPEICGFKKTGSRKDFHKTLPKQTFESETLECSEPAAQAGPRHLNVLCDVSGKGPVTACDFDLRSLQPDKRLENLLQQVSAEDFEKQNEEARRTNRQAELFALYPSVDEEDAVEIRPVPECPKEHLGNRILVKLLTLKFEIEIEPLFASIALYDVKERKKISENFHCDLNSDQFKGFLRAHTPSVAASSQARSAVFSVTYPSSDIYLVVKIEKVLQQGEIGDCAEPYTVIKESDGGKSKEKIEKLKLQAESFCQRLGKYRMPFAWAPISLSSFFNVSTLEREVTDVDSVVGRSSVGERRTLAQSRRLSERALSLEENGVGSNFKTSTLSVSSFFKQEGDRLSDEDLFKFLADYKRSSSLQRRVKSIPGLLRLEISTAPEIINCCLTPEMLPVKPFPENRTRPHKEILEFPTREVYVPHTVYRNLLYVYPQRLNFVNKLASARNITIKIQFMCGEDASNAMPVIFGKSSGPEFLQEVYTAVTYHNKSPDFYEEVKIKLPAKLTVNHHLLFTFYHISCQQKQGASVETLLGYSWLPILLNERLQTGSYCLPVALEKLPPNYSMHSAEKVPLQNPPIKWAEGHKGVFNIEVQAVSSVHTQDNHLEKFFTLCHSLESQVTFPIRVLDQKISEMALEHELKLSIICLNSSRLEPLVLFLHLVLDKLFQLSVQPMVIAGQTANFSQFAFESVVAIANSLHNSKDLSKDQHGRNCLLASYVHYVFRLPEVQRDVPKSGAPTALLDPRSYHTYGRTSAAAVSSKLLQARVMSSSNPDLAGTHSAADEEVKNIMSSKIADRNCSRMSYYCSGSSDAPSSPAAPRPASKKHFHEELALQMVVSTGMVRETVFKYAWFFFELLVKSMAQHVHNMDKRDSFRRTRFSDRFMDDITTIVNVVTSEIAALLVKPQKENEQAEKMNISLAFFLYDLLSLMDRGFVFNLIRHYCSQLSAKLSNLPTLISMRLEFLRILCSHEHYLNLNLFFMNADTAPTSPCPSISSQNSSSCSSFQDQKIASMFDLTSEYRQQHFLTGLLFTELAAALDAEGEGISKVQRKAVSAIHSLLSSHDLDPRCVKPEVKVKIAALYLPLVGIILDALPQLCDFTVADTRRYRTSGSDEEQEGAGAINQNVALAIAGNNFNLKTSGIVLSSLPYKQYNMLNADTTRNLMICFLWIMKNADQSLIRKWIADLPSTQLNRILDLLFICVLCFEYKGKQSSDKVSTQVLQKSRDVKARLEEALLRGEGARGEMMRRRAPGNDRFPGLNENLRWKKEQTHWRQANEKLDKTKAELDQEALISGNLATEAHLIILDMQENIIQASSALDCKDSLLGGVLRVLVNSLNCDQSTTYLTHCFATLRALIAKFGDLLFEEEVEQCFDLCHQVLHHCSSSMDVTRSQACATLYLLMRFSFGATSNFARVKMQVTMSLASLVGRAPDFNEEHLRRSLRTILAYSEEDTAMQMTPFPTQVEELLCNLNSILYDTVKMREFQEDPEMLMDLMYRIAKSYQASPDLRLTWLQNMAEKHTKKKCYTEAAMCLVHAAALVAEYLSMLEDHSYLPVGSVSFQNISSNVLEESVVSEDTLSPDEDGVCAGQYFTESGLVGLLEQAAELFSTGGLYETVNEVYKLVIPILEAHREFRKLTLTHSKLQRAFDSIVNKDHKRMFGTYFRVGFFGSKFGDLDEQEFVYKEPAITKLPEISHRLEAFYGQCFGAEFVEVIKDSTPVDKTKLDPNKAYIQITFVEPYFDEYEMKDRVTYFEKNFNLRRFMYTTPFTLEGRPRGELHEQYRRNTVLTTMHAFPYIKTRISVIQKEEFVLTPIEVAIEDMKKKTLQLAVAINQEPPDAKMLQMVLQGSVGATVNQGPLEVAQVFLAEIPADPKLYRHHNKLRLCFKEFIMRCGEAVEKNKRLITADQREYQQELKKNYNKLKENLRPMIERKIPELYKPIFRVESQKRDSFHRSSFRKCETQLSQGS
UniProt Q8C147: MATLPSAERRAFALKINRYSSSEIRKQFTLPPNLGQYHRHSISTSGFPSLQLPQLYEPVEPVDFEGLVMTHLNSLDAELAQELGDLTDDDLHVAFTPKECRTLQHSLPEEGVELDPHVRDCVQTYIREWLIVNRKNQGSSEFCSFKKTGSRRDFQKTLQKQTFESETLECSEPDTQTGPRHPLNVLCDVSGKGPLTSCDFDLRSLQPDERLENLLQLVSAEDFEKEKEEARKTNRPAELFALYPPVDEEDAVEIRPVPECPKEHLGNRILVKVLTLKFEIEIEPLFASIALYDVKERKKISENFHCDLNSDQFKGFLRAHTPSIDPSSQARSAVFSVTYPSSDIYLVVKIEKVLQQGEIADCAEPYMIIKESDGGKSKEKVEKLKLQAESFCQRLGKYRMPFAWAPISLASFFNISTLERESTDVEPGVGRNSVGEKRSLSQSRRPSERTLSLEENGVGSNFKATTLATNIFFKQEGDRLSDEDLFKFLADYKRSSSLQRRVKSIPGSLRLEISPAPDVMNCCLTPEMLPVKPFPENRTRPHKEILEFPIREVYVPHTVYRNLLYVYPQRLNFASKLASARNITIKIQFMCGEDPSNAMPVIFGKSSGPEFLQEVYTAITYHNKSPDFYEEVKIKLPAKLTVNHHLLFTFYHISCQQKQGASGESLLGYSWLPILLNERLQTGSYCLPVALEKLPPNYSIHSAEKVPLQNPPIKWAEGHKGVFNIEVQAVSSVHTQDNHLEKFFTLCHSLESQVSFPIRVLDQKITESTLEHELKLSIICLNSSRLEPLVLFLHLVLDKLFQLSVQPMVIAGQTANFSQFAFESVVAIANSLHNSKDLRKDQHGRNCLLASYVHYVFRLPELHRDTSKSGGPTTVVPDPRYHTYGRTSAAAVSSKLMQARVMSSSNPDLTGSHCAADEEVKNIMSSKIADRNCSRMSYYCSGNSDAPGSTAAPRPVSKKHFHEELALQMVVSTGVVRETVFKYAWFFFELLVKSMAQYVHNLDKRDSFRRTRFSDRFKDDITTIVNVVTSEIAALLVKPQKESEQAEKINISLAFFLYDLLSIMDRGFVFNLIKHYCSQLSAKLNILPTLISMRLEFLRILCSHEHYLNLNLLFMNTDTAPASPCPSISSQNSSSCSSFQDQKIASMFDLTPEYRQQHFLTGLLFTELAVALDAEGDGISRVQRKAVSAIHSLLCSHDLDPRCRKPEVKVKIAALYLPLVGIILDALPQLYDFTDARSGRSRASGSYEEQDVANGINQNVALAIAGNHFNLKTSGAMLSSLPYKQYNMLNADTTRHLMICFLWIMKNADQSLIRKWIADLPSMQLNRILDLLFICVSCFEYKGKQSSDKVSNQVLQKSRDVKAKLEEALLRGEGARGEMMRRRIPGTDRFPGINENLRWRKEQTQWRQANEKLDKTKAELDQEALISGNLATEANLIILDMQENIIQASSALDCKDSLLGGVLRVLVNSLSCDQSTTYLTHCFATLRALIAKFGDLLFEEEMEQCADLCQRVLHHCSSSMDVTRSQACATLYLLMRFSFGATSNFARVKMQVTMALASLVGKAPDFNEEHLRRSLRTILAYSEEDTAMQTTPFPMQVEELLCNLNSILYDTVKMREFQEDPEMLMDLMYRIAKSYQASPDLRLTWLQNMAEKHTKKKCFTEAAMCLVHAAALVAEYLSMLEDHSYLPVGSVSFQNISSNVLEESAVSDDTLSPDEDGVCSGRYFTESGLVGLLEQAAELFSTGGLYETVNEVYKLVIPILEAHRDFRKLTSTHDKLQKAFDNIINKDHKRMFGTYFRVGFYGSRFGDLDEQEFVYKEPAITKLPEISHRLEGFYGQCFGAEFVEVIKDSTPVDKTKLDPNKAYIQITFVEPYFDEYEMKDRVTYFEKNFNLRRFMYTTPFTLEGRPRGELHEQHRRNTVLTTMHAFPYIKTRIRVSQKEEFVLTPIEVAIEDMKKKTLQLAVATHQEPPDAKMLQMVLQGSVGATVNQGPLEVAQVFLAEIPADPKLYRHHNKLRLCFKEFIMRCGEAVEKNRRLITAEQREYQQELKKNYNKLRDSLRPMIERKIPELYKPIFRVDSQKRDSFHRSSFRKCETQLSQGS
UniProt O43353: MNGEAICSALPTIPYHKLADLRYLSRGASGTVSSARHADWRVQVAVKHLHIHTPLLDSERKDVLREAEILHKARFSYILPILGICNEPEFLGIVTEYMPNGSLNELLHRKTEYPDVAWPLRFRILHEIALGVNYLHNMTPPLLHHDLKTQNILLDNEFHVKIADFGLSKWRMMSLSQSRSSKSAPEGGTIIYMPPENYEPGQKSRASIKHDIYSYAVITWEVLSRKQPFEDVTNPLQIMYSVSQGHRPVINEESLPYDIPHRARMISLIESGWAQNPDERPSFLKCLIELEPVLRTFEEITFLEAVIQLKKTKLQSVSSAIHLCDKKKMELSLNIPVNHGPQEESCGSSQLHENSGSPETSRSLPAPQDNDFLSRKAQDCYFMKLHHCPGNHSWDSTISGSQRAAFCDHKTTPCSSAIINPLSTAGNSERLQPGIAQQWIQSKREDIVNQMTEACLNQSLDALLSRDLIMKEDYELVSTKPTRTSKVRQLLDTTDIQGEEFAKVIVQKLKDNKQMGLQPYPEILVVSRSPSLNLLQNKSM
UniProt P60953: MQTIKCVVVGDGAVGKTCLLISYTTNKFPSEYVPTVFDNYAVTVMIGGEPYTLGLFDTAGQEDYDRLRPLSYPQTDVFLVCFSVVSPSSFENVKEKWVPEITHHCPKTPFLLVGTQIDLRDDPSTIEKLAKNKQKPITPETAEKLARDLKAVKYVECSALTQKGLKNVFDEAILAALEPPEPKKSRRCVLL
UniProt P60766: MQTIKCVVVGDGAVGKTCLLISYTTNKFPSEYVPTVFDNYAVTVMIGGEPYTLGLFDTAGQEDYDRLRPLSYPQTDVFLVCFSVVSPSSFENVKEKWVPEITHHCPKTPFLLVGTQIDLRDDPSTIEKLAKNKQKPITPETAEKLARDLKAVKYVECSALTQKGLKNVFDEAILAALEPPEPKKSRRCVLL

These are yes or no findings as the source states them, for the method shown. In cells and extracts the contact can be indirect. Some entries that bind do so weakly or less than the wild type.

What all share (assay): co-IP
The target of test [1] is DOCK8 (dedicator of cytogenesis protein 8) (human (endogenous in human platelets)) (UniProt Q8NF50).
Test [2] deals with DOCK8 (mouse) (mouse (endogenous in mouse platelets)) (UniProt Q8C147).
The target in test [3] is phosphorylated RIP2 (Ser 176), receptor-interacting protein 2 (human (endogenous in human platelets)) (UniProt O43353).

Consider “Cdc42 (cell division cycle 42) (from UniProt P60953 1-191)”, for which the binding result in test [1] is recorded as “binds”.

Regarding “Cdc42 (mouse) (from UniProt P60766 1-191)”, the binding result in test [2] is recorded as “binds”.

With “DOCK8 (dedicator of cytogenesis protein 8) (from UniProt Q8NF50 1-2099)”, the binding entry in test [3] is recorded as “binds”.
